Screen size: about 52,000 sequences; about 210 (0.4%) were called active.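 How the source made its calls: active means gene whose silencing raises cell survival under the drug, median off-target-corrected z-score across its silencing RNAs 2 or more; inactive means the rest.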 The list shows a part of the results.

This assay is described as follows: Resistance to Poly (ADP-Ribose) Polymerase inhibitor: Gene Identification via Genome-wide siRNA Screen. Particulars: mouse BRCA2 R2336H ES cells, olaparib, CellTiter-Glo viability; active compounds read high. The method, boiled down:
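Mouse BRCA2 R2336H ES cells were reverse-transfected with siRNA (20 nM final), treated at 48 h with 500 nM olaparib, and read by CellTiter-Glo after 72 h. Scores: MAD-based z per siRNA, median per gene, seed off-target correction.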
Turning to GGCUAAUGGUGCGUACAGATT against Cyp4a10, the z-score is inactive: -0.194.
The result for CCAAUUGGGCACAUAGUCGTT against Ovgp1 reads inactive: -0.185.
On to GAGCAGAGGAUUGAUGCACTT against LOC235779, for which the z-score is inactive: -1.84.
The result for GGUGAUGGAGUACUUAUUGTT against Acadvl reads inactive: -0.775; that for CCUGUUAAUUGAUUACCUUTT against Pla2g1br, inactive: 1.08.
The result for GGUGGUUUUCAUGUUUCCCTT against Olfr574 reads inactive: -0.968; that for GGAAAUUUUGACCAAGACCTT against Apoc1, inactive: 0.965; that for GCAUCACAGGCGAGUUUGUTT against Olfr11, inactive: -0.633.
Turning to “GGAAGGAAGUUAAUUCAUGTT against D330038O06”, the z-score is inactive: -0.1.
The result for GGAACUAUUACCAUUCUGUTT against Dkk3 reads inactive: 0.217; that for “GGGCUGAAUAAAAGCCAGATT against 2410005H09Rik”, inactive: -0.133; that for “AUCUCAGCCUUGGUACGUGTT against 2610200G18Rik”, inactive: -0.57.
Under GGUAUUUGCCAACCAAAACTT against Trerf1 stands inactive: -1.45; under “GGAGGUCUGGAUUAACUGUTT against 5830411N06Rik”, inactive: -0.058; under GGAAUUCAUGAAGAAGUCATT against Pdlim7, inactive: 0.191.
The result for CGGACUCCAUAUGUUGAAUTT against AI413414 reads inactive: 0.68; that for GGCCAAAUUGCCAUCUGUUTT against Gm1631, inactive: 0.839; that for CCAUUGUUAGCCACAUACGTT against Acp5, inactive: 0.29.
Consider GGUCAUCAAGCAGUGCUAUTT against Ncstn, for which the z-score is inactive: 0.741.
The result for “GGACAGCCAGGACUUCUCATT against 4833421E05Rik” reads inactive: -1.37; that for GCCAAUCGUAACUUGCUAATT against Arhgap19, inactive: 0.256.
Under GGAACUGAAAGACCAGUAGTT against Rpl37a stands inactive: -2.22; under GGAGUUAAAAUCACUCAUCTT against Ifi1, inactive: -0.366.
For the sequence GGCUUUCUGGGAACAGAGATT against Dspg3, the z-score was inactive: -0.627.
Consider CCUCCUCCAACCAUCAGUUTT against Olfr695, for which the z-score is inactive: 0.276.
Consider CCUAGUAACUAUCUACCUCTT against Sval3, for which the z-score is inactive: -0.537.
The result for “CGAUUCCAACAAGAAAGUGTT against 4632412N22Rik” reads inactive: -0.0925; that for GCGCAACUAAAACAGAUUGTT against Eif2ak1, inactive: -0.135; that for GGACAUAAGACCAUCUCCCTT against Olfr49, inactive: 0.835.
On to GGAGAACAGCACACUGAACTT against Trappc5, for which the z-score was inactive: 1.31.
Under GCUGGAUUUGGACUCUUAGTT against V1rc29 stands inactive: -3.04; under GCUGAGGCUGUGGAAACCATT against Nradd, inactive: 0.479.
GGUGACGGUGUACGAGUUATT against Crybb3: the z-score is inactive: 0.107.
The result for GGAGAAAGGAUUAUAGAUGTT against Klk7 reads inactive: 1.12.
In the case of “GGAUAAUUCAAAGACUGGATT against A630091E08Rik”, the z-score was inactive: -0.809.
As to GGAAAUAUGGACAAGAACATT against Tulp4, the z-score was inactive: -1.48.
Take GGCACAGUUCUGGAAGAUGTT against Qtrt1: the z-score was inactive: -0.579.
The result for CGGUAUGUGUUGUCAGAGGTT against P42pop reads inactive: -0.926; that for “GGGAAGUAGCCAUCACACCTT against C330008L01Rik”, inactive: 1.63.
The result for GGAAUGUAUCCAGGACUUCTT against Brd4 reads inactive: -1.95; that for GCAGCAAUAUAAGGACAGUTT against Grin2b, inactive: 0.0462.
Under AUGUGGCAAAACCUUUGCATT against BC018101 stands inactive: 0.244; under GGAGUGACUCCUACAAAAUTT against Ms4a4b, inactive: 0.533; under GGACUUACAGCUAAACAACTT against Qk, inactive: 1.33.
Turning to GGUUGCCUUUCUGUCGUUCTT against Olfr558, the z-score was inactive: -1.32.
Consider “GGCGAAAGUGCUUUUCCUGTT against 5830443L24Rik”, for which the z-score is inactive: 1.7.
The result for “GGGACCUGUUUCUAUCCUGTT against 1700111I05Rik” reads inactive: 0.605; that for “CCCAACAUUUUCUAUGUGATT against 2410008K03Rik”, inactive: -0.202.
Take GGUCCAUUGGGAGUUUGAGTT against Slc2a6: the z-score was inactive: -1.29.
Take GGUGUUUGUUCGGAAGCUCTT against Pes1: the z-score was inactive: -1.54.
Under GGUGGUGUAAUAGCUAAGATT against Hspa12b stands inactive: 1.09.
As for CCAAUGUGGAUGAAUCGAATT against Pdcd11, the z-score was inactive: 1.1.
The result for GGAAAGUUUGCACUGUAAATT against Tiam2 reads inactive: 0.607; that for “CCCAUAUUCUACACAUUCUTT against Gadd45gip1”, inactive: -0.0949.
Regarding “CCCGUUAUCUUCCCAACUGTT against 4733401H21Rik”, the z-score is inactive: 0.111.
For the sequence GGACUGUUUGGAUUGCAUATT against Dock7, the z-score is inactive: -0.822.
Under CGCAGAAAGAAAUAGCAAUTT against B2m stands inactive: 1.24.
With GGGUUUGAUCAACAGAGCCTT against Idb1, the z-score is inactive: 0.765.
For the sequence GGUAUAUGGAACCAUGGGATT against Psmb9, the z-score is inactive: 0.156.
As for GCCUCGAGGACAAAACAUCTT against Amacr, the z-score is inactive: -0.597.
Take “GGAUGCUCUCCAAUGAAUCTT against E130310N06”: the z-score is inactive: 0.495.
For UGCUGUGGUCACUCCCAUGTT against Olfr457, the z-score is inactive: 0.391.
As to GGUCCUGGAAUCUCAAAAUTT against Entpd1, the z-score was inactive: -0.282.
In the case of CGAUUUAUUGGAGGCGCACTT against Glrx2, the z-score is inactive: -0.129.
The result for GGUCUUACUCCAGUCUGCCTT against Rufy1 reads inactive: -0.0238; that for “CCAGAAUUGAACUUCAAGUTT against 2610008E11Rik”, inactive: 0.365; that for GCCCAUUGUAUGACUGCCGTT against Gfra2, inactive: -0.73.
As for CCCUUUCUGUACUCUUAUCTT against Tcfl4, the z-score is inactive: 0.937.
Under GGACUUGUUCUACAAGUACTT against Sfrs9 stands inactive: -0.25; under GGGAAUUUCGGCUGUUUUATT against Cts8, inactive: 0.0412; under AGCUCUAGCAACUAAGCGCTT against LOC382109, inactive: 1.07.
The result for “GGUUUGGCCAUCUCCUAUGTT against 0610009O03Rik” reads inactive: 1.61.
The result for GCAGUAUUACAAUAGGAUCTT against Magea9 reads inactive: 0.74; that for GGUGACCAAAAUGACUUGUTT against Slc39a3, inactive: 2.03.
As to “CGAUGUGAGUUGCAGAUAUTT against 1700011J10Rik”, the z-score was inactive: -1.35.
On to GAUACAGAAUGUCUCAUCCTT against Olfr1128, for which the z-score was inactive: 0.689.
Under GCGCAGAUGGAUCCUAACATT against Tnfsf11 stands inactive: 1.1; under GGCCUGUGAGUGUGACAAATT against Pla2g2c, inactive: -0.19.
In the case of GGGUCAACCAGCAAAACCUTT against AU021034, the z-score is inactive: -1.15.
The result for GGACGAUUCCCAGUUUCUGTT against Phf1 reads inactive: -0.468; that for “CCCGAAUGAUCAAACCAAGTT against 4930555I21Rik”, inactive: -0.68.
Take CGAGACCUACAUCUUGAAUTT against Smpd1: the z-score was inactive: 1.51.
The result for CGUAAUUUUGGAAAAGCCUTT against Emb reads inactive: -1.31; that for “GGAGAUUCCCGUGGUUAUUTT against 2410004H05Rik”, inactive: 0.0648; that for GGCCAUGCCACUCAUCUUUTT against Tpst2, inactive: 1.93.
As for GCAUAGUAAUCUCCGAAUATT against MGC67181, the z-score was inactive: 1.64.
With GGAAGAAAGGAAAUGUUGUTT against Ctsh, the z-score is inactive: 0.0426.
For the sequence GGCUCCAGGAAACAAAGAUTT against Ubtd1, the z-score was inactive: -0.686.
On to GCCUUCUGCUUAGUUACUGTT against Krtap6-1, for which the z-score is inactive: 0.793.
In the case of CGAUACCCUCACCAGAUUUTT against Limk1, the z-score is inactive: -1.15.
As to “GGGUACCUUCUGAUGUUUUTT against 2410170E21Rik”, the z-score is inactive: 1.01.
Under GGGCUUCCUAGUAUUCCACTT against Tuba4 stands inactive: -0.792; under GGAGACUCAGCAGAUUAUUTT against Gzmn, inactive: 0.315.
The result for GGAUGGCCAAGUAUGAACUTT against Gpr153 reads inactive: -0.53; that for “GGAGCUGUGAGCAUUACUGTT against 2610019I03Rik”, inactive: -0.497; that for GCUAGUAUUAAAGAAGAGCTT against Myh10, inactive: 1.52.
Turning to “GGUGCCAUUGAUUCUGUAGTT against 6330419J24Rik”, the z-score was inactive: -0.789.
GCAACUCUGAGGUUGCUAGTT against Pgam1: the z-score was inactive: 0.414.
Turning to GGAACUCCUGACUCUCAGATT against Prss25, the z-score was inactive: 0.231.
Turning to GCUUAACUCUAGAGUAUGCTT against Pzp, the z-score was inactive: 0.00253.
Regarding GGUCCUUACCUCCAAUCCATT against Fndc5, the z-score is inactive: 1.79.
GGCUGGAAAAAAUUCAGAATT against Mtmr7: the z-score was inactive: -0.171.
As for CCAUCAUGUAUCAAUGACATT against Olfr867, the z-score was inactive: 0.947.
Regarding GGAAGUGGUGGCCAUCAAGTT against Stk25, the z-score is inactive: 2.47.

For the origin of these results see PubChem BioAssay AID1347423 (Functional Genomics Laboratory (NCATS/FGL), 2020).
